Data as given in PubChem BioAssay AID1259425 (University of Nebraska Medical Center, 2018)
Assay: 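Find knockdowns that reproduce the gene expression pattern seen when KSR1 is lost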 (primary screen). System: HCT116 human colon cancer cells. Reagent: siRNA pool against human genes, 50 nM siRNA. Measured: 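mRNA of six signature genes measured together by branched-DNA assay after 50 nM siRNA pool, blank removed, divided by geometric mean of two housekeeping genes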. Scale: BNIP3L mRNA: higher = more BNIP3L transcript after knockdown; NDRG1 mRNA: higher = more NDRG1 transcript after knockdown; BNIP3 mRNA: higher = more BNIP3 transcript after knockdown; ALDOC mRNA: higher = more ALDOC transcript after knockdown; ACSL5 mRNA: higher = more ACSL5 transcript after knockdown.
The deposit covers about 14,000 reagents; shown is a random part of them. Not given: the time to read-out.

| target gene | BNIP3L mRNA, set 1 | NDRG1 mRNA, set 1 | BNIP3 mRNA, set 1 | ALDOC mRNA, set 1 | ACSL5 mRNA, set 1 |
| --- | --- | --- | --- | --- | --- |
| PLEKHF2 (pleckstrin homology and FYVE domain containing 2) | 0.132 | 0.153 | 0.297 | 0.0444 | 0.139 |
| ARMC10 (armadillo repeat containing 10) | 0.302 | 0.305 | 0.45 | 0.133 | 0.343 |
| EFNA3 (ephrin A3) | 0.0777 | 0.134 | 0.321 | 0.0105 | 0.188 |
| FAM168A (family with sequence similarity 168 member A) | 0.119 | 0.632 | 0.349 | 0.024 | 0.119 |
| SMC2 (structural maintenance of chromosomes 2) | 0.13 | 0.355 | 0.297 | 0.0415 | 0.265 |
| SMUG1 | 0.092 | 0.348 | 0.325 | 0.0197 | 0.204 |

3 entries from above, showing only “ALDOC mRNA, set 1”.
ARMC10 (armadillo repeat containing 10)	0.133
EFNA3 (ephrin A3)	0.0105
FAM168A (family with sequence similarity 168 member A)	0.024

The list goes on.
| target gene | BNIP3L mRNA, set 1 | NDRG1 mRNA, set 1 | BNIP3 mRNA, set 1 | ALDOC mRNA, set 1 | ACSL5 mRNA, set 1 |
| --- | --- | --- | --- | --- | --- |
| FCF1 (FCF1 rRNA-processing protein) | 0.175 | 0.194 | 0.293 | 0.0144 | 0.172 |
| RBP2 (retinol binding protein 2) | 0.162 | 0.213 | 0.284 | 0.0626 | 0.171 |
| PNP (purine nucleoside phosphorylase) | 0.387 | 0.332 | 0.358 | 0.0505 | 0.302 |
| ARL5A (ARF like GTPase 5A) | 0.0594 | 0.35 | 0.594 | 0.0247 | 0.25 |
| LSM4 | 0.214 | 0.248 | 0.456 | 0.0306 | 0.123 |
| IRF1 (interferon regulatory factor 1) | 0.211 | 0.107 | 0.156 | 0.00821 | 0.198 |
| LSM8 (LSM8 homolog, U6 small nuclear RNA associated) | 0.181 | 0.602 | 0.287 | 0.0436 | 0.205 |
| PLGLB2 (plasminogen like B2) | 0.0599 | 0.383 | 0.394 | 0.0856 | 0.141 |
| OR10H1 (olfactory receptor family 10 subfamily H member 1) | 0.101 | 0.202 | 0.286 | 0.0106 | 0.161 |
| FLACC1 (flagellum associated containing coiled-coil domains 1) | 0.158 | 0.219 | 0.306 | 0.0374 | 0.189 |
| CXXC1 (CXXC finger protein 1) | 0.124 | 0.185 | 0.305 | 0.0336 | 0.168 |
| NPEPPS (aminopeptidase puromycin sensitive) | 0.0826 | 0.0709 | 0.234 | 0.0209 | 0.207 |
| COMMD5 (COMM domain containing 5) | 0.058 | 0.179 | 0.13 | 0.0108 | 0.102 |
| AGFG1 (ArfGAP with FG repeats 1) | 0.881 | 1.21 | 1.93 | 0.113 | 0.915 |
